Publication PMC4741484
No constants are given. Whether binding was seen depends on the method and setting. In cells and extracts the contact can be indirect. Some binding calls cover weakened binding; strength is not graded here. For part of these data: Sequences can lack the tags named with a protein.

Chains of the proteins cited; added tags and fusions are not shown.
UniProt P01100: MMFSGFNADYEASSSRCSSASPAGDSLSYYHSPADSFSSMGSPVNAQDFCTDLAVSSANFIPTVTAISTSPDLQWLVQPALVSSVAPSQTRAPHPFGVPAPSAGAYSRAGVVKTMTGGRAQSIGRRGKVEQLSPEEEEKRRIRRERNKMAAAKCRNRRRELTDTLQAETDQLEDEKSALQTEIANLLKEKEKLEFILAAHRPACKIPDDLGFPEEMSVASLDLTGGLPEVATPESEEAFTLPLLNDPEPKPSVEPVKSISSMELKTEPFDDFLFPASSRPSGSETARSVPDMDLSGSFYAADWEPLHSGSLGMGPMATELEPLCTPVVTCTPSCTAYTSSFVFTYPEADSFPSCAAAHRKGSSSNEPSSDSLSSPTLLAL

B1: KDM2A (endogenous) (enzyme, UniProt Q9Y2K7 1-1162)
chain: MEPEEERIRYSQRLRGTMRRRYEDDGISDDEIEGKRTFDLEEKLHTNKYNANFVTFMEGKDFNVEYIQRGGLRDPLIFKNSDGLGIKMPDPDFTVNDVKMCVGSRRMVDVMDVNTQKGIEMTMAQWTRYYETPEEEREKLYNVISLEFSHTRLENMVQRPSTVDFIDWVDNMWPRHLKESQTESTNAILEMQYPKVQKYCLMSVRGCYTDFHVDFGGTSVWYHIHQGGKVFWLIPPTAHNLELYENWLLSGKQGDIFLGDRVSDCQRIELKQGYTFVIPSGWIHAVYTPTDTLVFGGNFLHSFNIPMQLKIYNIEDRTRVPNKFRYPFYYEMCWYVLERYVYCITNRSHLTKEFQKESLSMDLELNGLESGNGDEEAVDREPRRLSSRRSVLTSPVANGVNLDYDGLGKTCRSLPSLKKTLAGDSSSDCSRGSHNGQVWDPQCAPRKDRQVHLTHFELEGLRCLVDKLESLPLHKKCVPTGIEDEDALIADVKILLEELANSDPKLALTGVPIVQWPKRDKLKFPTRPKVRVPTIPITKPHTMKPAPRLTPVRPAAASPIVSGARRRRVRCRKCKACVQGECGVCHYCRDMKKFGGPGRMKQSCVLRQCLAPRLPHSVTCSLCGEVDQNEETQDFEKKLMECCICNEIVHPGCLQMDGEGLLNEELPNCWECPKCYQEDSSEKAQKRKMEESDEEAVQAKVLRPLRSCDEPLTPPPHSPTSMLQLIHDPVSPRGMVTRSSPGAGPSDHHSASRDERFKRRQLLRLQATERTMVREKENNPSGKKELSEVEKAKIRGSYLTVTLQRPTKELHGTSIVPKLQAITASSANLRHSPRVLVQHCPARTPQRGDEEGLGGEEEEEEEEEEEDDSAEEGGAARLNGRGSWAQDGDESWMQREVWMSVFRYLSRRELCECMRVCKTWYKWCCDKRLWTKIDLSRCKAIVPQALSGIIKRQPVSLDLSWTNISKKQLTWLVNRLPGLKDLLLAGCSWSAVSALSTSSCPLLRTLDLRWAVGIKDPQIRDLLTPPADKPGQDNRSKLRNMTDFRLAGLDITDATLRLIIRHMPLLSRLDLSHCSHLTDQSSNLLTAVGSSTRYSLTELNMAGCNKLTDQTLIYLRRIANVTLIDLRGCKQITRKACEHFISDLSINSLYCLSDEKLIQKIS
B2: YFP-KDM2A (enzyme, UniProt Q9Y2K7 1-1162)
chain: B1 chain

Legend:
[1] = molecular target: c-Fos (endogenous) (human (endogenous in H719 and H460)) (UniProt P01100); experiment: co-IP; endogenous proteins, H460 cells, TPA treatment (100 ng/mL, 2 hrs); lysis in 1% NP-40, 150 mM NaCl, 50 mM Tris, 0.05% SDS
[2] = molecular target: c-Fos (endogenous) (human (endogenous in H719 and H460)) (UniProt P01100); experiment: co-IP; endogenous proteins, H719 cells without or with TPA (100 ng/mL, 2 hrs); lysis in 1% NP-40, 150 mM NaCl, 50 mM Tris, 0.05% SDS; IP with anti-c-Fos or with anti-KDM2A, Western blotting with anti-KDM2A or anti-c-Fos
[3] = molecular target: CFP-c-Fos (UniProt P01100); experiment: FRET or BRET; FRET by fluorescence lifetime imaging (FLIM); HEK293T cells transfected with pECFP-c-Fos and/or pEYFP-KDM2A, without or with TPA for 2 hrs, fixed with 4% paraformaldehyde; donor CFP-c-Fos

| Binder | binding [1] | binding [2] | binding [3] |
| --- | --- | --- | --- |
| B1 | binds | binds | – |
| B2 | – | – | binds |
